For 41 compounds, AC50 results are on record in PubChem BioAssay AID493014 (National Center for Advancing Translational Sciences (NCATS), 2011).

The nature of the experiment: qHTS Assay to Find Inhibitors of Chronic Active B-Cell Receptor Signaling. The settings on record: ABC-DLBCL IkBa-CBG/CBR reporter, luminescence ratio (green luciferase fused to IkBa over red control in TMD8 lymphoma cells), 4 h. In outline:
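Doxycycline induced both beetle luciferases in TMD8 lymphoma cells; IKK-driven degradation limits the IkappaBalpha-fused green signal, while red luminescence normalises for cell number and nonspecific effects. Compounds tested up to 46 uM, 4 hrs.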

Where [1] appears, read: measured here: CBR red luminescence, cell number.
Where [2] appears, read: measured here: IkBa-CBG green luminescence.

The other results are listed elsewhere or left out. Shown are side measurements of this screen, not its main read-out; they come without a call. The list favours compounds with an active or inconclusive main result. The note in brackets gives the kind of curve behind each potency; many fits are weak.

The AC50 is the concentration giving half of the maximal activity seen.

For the compound `CC(=O)n1c(C=Nc2ccc(Cl)cc2)c(O)c2ccccc21`, under setting [1], the AC50 is 10 µM [falling, partial curve, poor fit]. The same measure, in the same setting: the figure for `CC1(C)CC(=O)C2=C(C1)c1c(ccc3ccccc13)NC2c1ccc(OCC(=O)O)cc1` (centres undefined) is 35.5 µM [falling, single point]; for `CC(C)OC(=O)NCCOC(=O)Nc1cccc(Cl)c1` it is 2.51 µM [rising, partial curve, poor fit].

As to `O=C(Nc1ccc(Cl)c([N+](=O)[O-])c1)c1ccc2c(c1)OCCO2`, the AC50 under setting [1] is 35.5 µM [falling, single point]. Consider `Cc1ccc(-c2nn(-c3ccccc3)cc2CO)o1`, for which the AC50 under setting [1] was 16.4 µM [rising, partial curve, poor fit].

Regarding `Cc1cc(NC2CCCCC2)nc2ccccc12`, the AC50 is, setting by setting: under setting [1], 2.82 µM [rising, full curve, poor fit]; under setting [2], 15.8 µM [falling, partial curve]. Take `Cc1ccc(NC(=O)C2CCN(c3ncnc4c3nc3n4CCCCC3)CC2)nc1`: the concentration at half-maximal activity (AC50) under setting [1] is 10 µM [falling, partial curve]. Regarding `Cc1ccc(C)c(OCC(=O)NCC(C)(C)N2CCOCC2)c1`, under setting [1], the concentration at half-maximal activity (AC50) is 18.4 µM [rising, partial curve, poor fit].

`CCCCN(C)C(=O)C1CCN(CCCc2ccccc2)CC1`: the AC50 under setting [1] is 1.64 µM [rising, partial curve, poor fit]. With `CCCc1ccc(OCC(=O)NNC(=S)NC(=O)c2ccco2)cc1`, the AC50 under setting [1] was 18.4 µM [rising, single point] and the AC50 under setting [2] is 16.4 µM [falling, partial curve, poor fit]. On to `COc1ccc(-c2cc(C(=O)O)nc3ccc4ccccc4c23)cc1OC`, for which the AC50 is, setting by setting: under setting [1], 14.1 µM [falling, partial curve]; under setting [2], 35.5 µM [falling, single point]. For the compound `C(=N\Nc1nc(-c2ccccc2)cs1)/c1cccnc1`, the half-maximal activity concentration (AC50) under setting [1] was 25.9 µM [falling, single point].

For `O=C(c1cc2nc(C3CC3)cc(C(F)F)n2n1)N1CCOCC1`, the half-maximal activity concentration (AC50) under setting [1] was 6.51 µM [rising, single point]. On to `O=C(C1CC(c2ccc(F)cc2)=NO1)N1CCCCC1` (centres undefined), for which the concentration at half-maximal activity (AC50) under setting [1] is 18.4 µM [falling, single point].

Turning to `COC(=O)C(NC(=O)c1cccnc1Cl)C(C)C` (centres undefined), under setting [1], the AC50 is 5.62 µM [rising, partial curve, poor fit]. Still for that read-out and setting: the figure for `CCC(=O)N(CCN1CCOCC1)Cc1cc2cc3c(cc2nc1Cl)OCO3` is 14.1 µM [rising, single point]; for `COc1ccc(-c2ncncc2-c2ccc(OC)c(OC)c2)c(O)c1` it is 35.5 µM [falling, single point]. Take `COC(=O)[C@H](Cc1ccc(O)cc1)NC(=O)Cn1cnc2c(NCc3ccccc3)ncnc21`: the AC50 under setting [1] was 5.8 µM [rising, full curve, poor fit]. The same measure, in the same setting: the figure for `CCOCc1nnc(NC(=O)c2cccc(OC)c2)s1` is 35.5 µM [falling, single point]; for `Cn1cnnc1SCC(=O)Nc1ccc2ccccc2c1` it is 23.1 µM [rising, partial curve, poor fit]; for `COc1cccc(/C=C2\SC(=S)N(CCCC(=O)Nc3ccc(C(=O)O)cc3)C2=O)c1` it is 1.58 µM [falling, full curve].

As to `O=C(CSc1nnc(-c2ccc3c(c2)OCO3)o1)Nc1ncc(Cl)cc1Cl`, the AC50 under setting [1] was 16.4 µM [rising, partial curve]. Turning to `O=C(CN1C(=O)/C(=C\c2cccc(Br)c2)Oc2ccccc21)NCCCN1CCOCC1`, the half-maximal activity concentration (AC50) under setting [1] was 0.1 µM [rising, full curve, poor fit]. The same measure, in the same setting: then `COC(=O)c1cnc(NNS(=O)(=O)c2ccc(Cl)cc2)nc1C(F)(F)F`, with 3.55 µM [rising, single point]. For `CCOC(=O)Cc1csc(NC(=O)/C=C\c2ccccc2)n1`, the AC50 under setting [1] was 1.58 µM [falling, full curve]. On the same count and under the same terms, the figure for `CC1CCN(C(=O)c2ccc3c(c2)OCCO3)CC1` is 6.51 µM [falling, single point]; for `O=C(COc1ccc([N+](=O)[O-])cc1)Nc1ccc(CN2CCOCC2)cc1` it is 17.8 µM [falling, single point]. Regarding `C=CC[C@H](CC(=O)N(CCO)Cc1ccccc1)C(=O)NCCOC(=O)[C@H](CC=C)CC(=O)OC(C)(C)C`, the AC50 under setting [1] is 3.26 µM [rising, single point]. As for `O=C(CCCOc1ccc(Cl)cc1Cl)N1CCCc2ccccc21`, the half-maximal activity concentration (AC50) under setting [1] was 2.91 µM [rising, single point]. Regarding `O=C(O)c1ccc(Nc2nc(-c3cc4ccccc4oc3=O)cs2)cc1O`, the AC50 under setting [1] was 7.94 µM [falling, partial curve]. The same measure, in the same setting: then `CCCc1ccc(C(=O)NNc2cc(Cl)ccc2Cl)cc1`, with 2.51 µM [falling, partial curve, poor fit]; and `CC(C)CN(C(=O)CSc1nn(-c2ccc(Cl)cc2)c(=S)s1)C1CCS(=O)(=O)C1` (centres undefined), with 29.1 µM [falling, single point]. Same read-out and setting: the figure for `O=C(NC1CCS(=O)(=O)C1)c1cccc(Cl)c1` (centres undefined) is 29.1 µM [rising, single point]; for `Cc1nc2ccc(S(=O)(=O)NCC(=O)Nc3ccc(F)cc3)cc2s1` it is 35.5 µM [falling, single point]; for `O=C(NCc1ccccc1)c1c(Cl)nc(Cl)c(Cl)c1Cl` it is 3.16 µM [falling, single point]. On the same count and under the same terms, then `CCOc1ccccc1C(=O)Nc1ccsc1C(=O)OC`, with 20.6 µM [falling, partial curve, poor fit].

Take `C/C(CC(=O)Nc1cccc(C(F)(F)F)c1)=N\NC(=O)c1ccncc1`: under setting [1], the AC50 is 17.8 µM [falling, partial curve, poor fit]. For `COc1ccc(CNC(=O)Cn2nc(-c3ccc4c(c3)OCCO4)ccc2=O)cc1`, the AC50 under setting [1] was 3.98 µM [rising, partial curve, poor fit]. With `O=C(O)Cc1ccc(NC(=O)C(c2ccccc2)c2ccccc2)cc1`, the AC50 under setting [1] is 10 µM [rising, partial curve].

On to `Cc1ccc(C(=O)Nn2cnc3ccccc3c2=O)cc1C`, for which, under setting [1], the half-maximal activity concentration (AC50) was 11.2 µM [falling, partial curve, poor fit]. Turning to `CCCN1Cc2cccc(C(=O)Nc3ccc(-c4nc5ccccc5[nH]4)cc3)c2C1=O`, the AC50 under setting [1] was 0.651 µM [rising, full curve, poor fit].
